# Structures can show the parent of a compound that is named as a salt.
# Test system: oxidative stress status in AlCl3-induced AD rats
# Test: Antioxidant parameters (MDA, GSH, CAT, SOD) in brain homogenate and serum of AlCl3-induced AD rats
# Format: in vivo
# Settings: Mean ± SEM, N = 6
smiles,measurement,value
"COc1cc2c(cc1OC)C(=O)C(CC1CCN(Cc3ccccc3)CC1)C2 (stereo not drawn) [REF. DRUG, Donepezil tartrate]",SERUM CAT,2.18 ± 0.04^@ U/mg protein
same,SERUM GSH,0.46 ± 0.021^@ nmol/mg protein
same,SERUM MDA,1.12 ± 0.03^@ nmol/mg protein

# From article PMC7749390, “Neuroprotective activity of Ulmus pumila L. in Alzheimer's disease in rats; role of neurotrophic factors” (Heliyon, 2020)
